Data from patent US20130146496A1, “SOLID PHARMACEUTICAL FORMULATIONS OF RAMIPRIL AND AMLODIPINE BESYLATE, AND THEIR PREPARATION” (priority 2010, published 2013).
For at least one compound, name, drawing or mass did not settle the structure.

Test: bulk density
Type: physicochemical

CCOC(=O)C1=C(COCCN)NC(C)=C(C(=O)OC)C1c1ccccc1Cl (racemic) [Amlodipine besylate, 3-ethyl-5-methyl-(+-)-2-[(2-aminoethoxy)methyl]-4-(2-chlorophenyl)-1,4-dihydro-6-methylpyridine-3,5-dicarboxylate]
bulk density: 0.313 g/mL
